This experiment relates to HEK293A TEAD-LUC reporter. Nature of the experiment: TEAD-luciferase reporter activity (YAP activation), robust Z score vs plate; higher = stronger YAP/TEAD activation. As to conditions: 24 h.

TEAD-luciferase reporter activity data for 17 molecules are collected here from the supplement of paper PMC10735217.

Molecules are shown by their SMILES. Where a name gives a salt, the structure may show the parent alone. Some of the results follow. Single values are uncertain here, since repeats match poorly.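 Human kidney-derived cells stably carry a construct in which eight TEAD-binding elements drive luciferase, measured by luminescence in a drug-repurposing library screen. A hit is any compound whose signal exceeds the plate mean by more than five robust Z scores.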

With `Cc1nc2cccc(N)c2c(=O)n1C1CCC(=O)NC1=O` (stereo not drawn), the TEAD-luciferase reporter activity was inactive: -0.693 (compound concentration: 200 nM), inactive: -0.414 (compound concentration: 2 uM) and inactive: 0.4 (compound concentration: 10 uM).

In the case of `CC12CCC3c4ccc(O)cc4C=CC3C1CCC2=O` (stereo not drawn) [_q_Delta(8,9)-dehydroestrone sulfate_q_], the TEAD-luciferase reporter activity reads like this: (compound concentration: 200 nM) inactive: 4.99; (compound concentration: 2 uM) inactive: -1.99; (compound concentration: 10 uM) inactive: 0.912.

Turning to `Cn1c(=O)c2nc(CN3CCN(C(c4ccccc4)c4ccccc4)CC3)[nH]c2n(C)c1=O`, the TEAD-luciferase reporter activity is inactive: 0.126 (compound concentration: 200 nM), inactive: 1.02 (compound concentration: 2 uM) and inactive: 2.54 (compound concentration: 10 uM).

For the molecule `O=C(O)c1cccc2c1OB(O)C(NC(=O)C1CC1)C2` (stereo not drawn), the TEAD-luciferase reporter activity reads like this: (compound concentration: 200 nM) inactive: -1.43; (compound concentration: 10 uM) inactive: 0.398.

In the case of `O=C(O)C1=C(CSc2nnnn2CS(=O)(=O)[O-])CS[C@@H]2[C@H](NC(=O)[C@H](O)c3ccccc3)C(=O)N12` [cefonicid formulations], the TEAD-luciferase reporter activity reads like this: (compound concentration: 200 nM) inactive: -0.926; (compound concentration: 2 uM) inactive: 0.0441; (compound concentration: 10 uM) inactive: 0.326.

With `CCc1c(-c2ccccc2)[nH]n(C2CCN(C)CC2)c1=O`, the TEAD-luciferase reporter activity is inactive: -0.277 (compound concentration: 200 nM), inactive: 0.705 (compound concentration: 2 uM) and inactive: -0.597 (compound concentration: 10 uM).

On to `CC(=O)N1CCC(C(=O)N2CCC(c3ccccc3)CC2)CC1`, for which the TEAD-luciferase reporter activity (compound concentration: 200 nM) was inactive: 2.1 and the TEAD-luciferase reporter activity (compound concentration: 10 uM) is inactive: 3.65.

As for `CNCC[C@@H](Oc1ccccc1C)c1ccccc1` [Atomoxetine hydrochloride], the TEAD-luciferase reporter activity was inactive: -1.1 (compound concentration: 200 nM) and inactive: 1.26 (compound concentration: 10 uM).

On to `CNCC[C@@H](Oc1ccccc1C)c1ccccc1` [Atomoxetine (hydrochloride)], for which, where the note is “compound concentration: 2 uM”, the TEAD-luciferase reporter activity is inactive: -1.07.

Regarding `Nc1sc(N)c2c1CCNC2`, the TEAD-luciferase reporter activity (compound concentration: 200 nM) is inactive: 1.06, the TEAD-luciferase reporter activity (compound concentration: 2 uM) is inactive: -1.24 and the TEAD-luciferase reporter activity (compound concentration: 10 uM) was inactive: 0.0148.

For `CCn1nc(-c2ccccc2)cc(Nc2cccc3ncccc23)c1=O`, the TEAD-luciferase reporter activity runs as follows: (compound concentration: 200 nM) inactive: -1.7; (compound concentration: 2 uM) inactive: 3.25; (compound concentration: 10 uM) inactive: -0.221.

As for `O=C(NCc1ccc(S(=O)(=O)N2CCC(n3nnc4ccccc43)CC2)s1)c1ccc(Cl)cc1`, the TEAD-luciferase reporter activity (compound concentration: 200 nM) was inactive: 0.0724, the TEAD-luciferase reporter activity (compound concentration: 2 uM) is inactive: -1.98 and the TEAD-luciferase reporter activity (compound concentration: 10 uM) is inactive: -1.37.

As to `O=C(Nc1cccc(C(F)(F)F)c1)Nc1ccccc1C(=O)O`, the TEAD-luciferase reporter activity runs as follows: (compound concentration: 200 nM) active: 5.74; (compound concentration: 2 uM) inactive: 0.158; (compound concentration: 10 uM) active: 8.

As for `CCCc1cc2c(O)c(C(=O)OC)cnc2cc1N(CC)CC`, the TEAD-luciferase reporter activity (compound concentration: 2 uM) was inactive: -0.906.

As for `CCCc1cc2c(O)c(C(=O)OC)cnc2cc1N(CC)CC` [Amquinate], the TEAD-luciferase reporter activity (compound concentration: 200 nM) was inactive: -0.876 and the TEAD-luciferase reporter activity (compound concentration: 10 uM) is inactive: -1.32.

In the case of `CCN1C[C@@H]([C@H](O)[C@H](CC2CCCCC2)NC(=O)[C@H](Cc2cnc[nH]2)NC(=O)[C@@H](CC(=O)N(C)CCOCOCCOC)Cc2ccccc2)OC1=O`, the TEAD-luciferase reporter activity is inactive: -1.55 (compound concentration: 200 nM), inactive: 0.255 (compound concentration: 2 uM) and inactive: -1.04 (compound concentration: 10 uM).

On to `O=C(NC[C@H]1CN(c2ccc(N3CCOCC3=O)cc2)C(=O)O1)c1ccc(Cl)s1` [rivaroxaban (extended release)], for which the TEAD-luciferase reporter activity was inactive: -0.0915 (compound concentration: 200 nM), inactive: 1.98 (compound concentration: 2 uM) and inactive: -0.597 (compound concentration: 10 uM).
